Experimental data taken from patent US9290459B1, “Substituted bicyclic dihydropyrimidinones and their use as inhibitors of neutrophil elastase activity” (Boehringer Ingelheim International GmbH, priority 2013, dated 2016).

Tested on: Caco-2 cells
Assay: Drug transport across human Caco-2 cells
Assay type: in vitro ADME
Settings: Caco-2 monolayers, apical-to-basal, pH 7.2, 37° C.

C[C@H](O)CNC(=O)N1C(=O)N(c2cccc(C(F)(F)F)c2)C2=C(C(=O)CC2)C1c1ccc(C#N)cc1 (stereo partly shown) [Example 41.1]
PEAB: 0.00000816 cm/s and 0.0000188 cm/s

The source holds more than one record for some entries. This list holds those alone. An entry can have further records. The values listed for one entry differ, and nothing given here explains why; some may be repeats, others may stem from another dose, organism or construct than stated.
